Experimental data: PubChem BioAssay AID1508597 (Cure First, 2020)
Test: 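Knock-downs altering ovarian cancer cell survival with or without PARP inhibitor rucaparib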 (primary screen). System: human ovarian carcinoma lines grown from tumours: OCI-P5x (papillary serous) and OCI-C5x (clear cell). Reagents: siRNA pool against human genes, 1.25 pmol siRNA per well. Timing: 72 h or 96 h, depending on the cell culture. Treatment: rucaparib 20 µM (about IC30) or vehicle, present until read-out. Rucaparib or vehicle: Rucaparib. Cell line: OCI-P5x (serous). Measured: 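Luminescent ATP-based viability assay read 72 or 96 h after transfection, depending on culture, given as normalised percent viability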. Scale: viability, normalised: higher = more viable cells remaining. Hit rule: 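a well counts as a hit if its normalised viability is under 80 percent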. Calls: active = viability under 80%; inactive = viability 80% or more.
Shown is an unselected part of the about 2,100 reagents, under one of the conditions tested. 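Calls flag viability under 80% in either arm, not effects specific to rucaparib; the reference for percent is not stated.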 A number with no mark means an inactive call. A reagent listed more than once was tested more than once; the source does not tell the runs apart. The record does not give: the 100% reference.

The opening 8 entries, ahead of the listing:
gene knocked down | technical replicate | viability, normalised (%)
TTK (GeneID 7272) | 1 | 70.4 (active)
TTK (GeneID 7272) | 2 | 64.5 (active)
TTK (GeneID 7272) | 3 | 62.7 (active)
ING2 (GeneID 3622) | 1 | 69.5 (active)
ING2 (GeneID 3622) | 2 | 62.5 (active)
ING2 (GeneID 3622) | 3 | 76.1 (active)
MED21 (GeneID 9412) | 1 | 74.8 (active)
MED21 (GeneID 9412) | 2 | 64.6 (active)

Main list, from the first entry:
gene knocked down | technical replicate | viability, normalised (%)
TTK (GeneID 7272) | 1 | 70.4 (active)
TTK (GeneID 7272) | 2 | 64.5 (active)
TTK (GeneID 7272) | 3 | 62.7 (active)
ING2 (GeneID 3622) | 1 | 69.5 (active)
ING2 (GeneID 3622) | 2 | 62.5 (active)
ING2 (GeneID 3622) | 3 | 76.1 (active)
MED21 (GeneID 9412) | 1 | 74.8 (active)
MED21 (GeneID 9412) | 2 | 64.6 (active)
MED21 (GeneID 9412) | 3 | 78.6 (active)
PAPSS1 (GeneID 9061) | 1 | 111
PAPSS1 (GeneID 9061) | 2 | 84
PAPSS1 (GeneID 9061) | 3 | 71.4 (active)
ILK (GeneID 3611) | 1 | 186
ILK (GeneID 3611) | 2 | 184
ILK (GeneID 3611) | 3 | 132
S100A4 (GeneID 6275) | 1 | 37.8 (active)
S100A4 (GeneID 6275) | 2 | 37.1 (active)
S100A4 (GeneID 6275) | 3 | 31.3 (active)
SFPQ (GeneID 6421) | 1 | 68.3 (active)
SFPQ (GeneID 6421) | 2 | 87.1
SFPQ (GeneID 6421) | 3 | 72.5 (active)
STK25 (GeneID 10494) | 1 | 71.3 (active)
STK25 (GeneID 10494) | 2 | 87.4
STK25 (GeneID 10494) | 3 | 78.8 (active)
UBN1 (GeneID 29855) | 1 | 39 (active)
UBN1 (GeneID 29855) | 2 | 48.6 (active)
UBN1 (GeneID 29855) | 3 | 44.2 (active)
SIRT4 (GeneID 23409) | 1 | 38.8 (active)
SIRT4 (GeneID 23409) | 2 | 54.8 (active)
SIRT4 (GeneID 23409) | 3 | 56 (active)
RPS9 (GeneID 6203) | 1 | 48.9 (active)
RPS9 (GeneID 6203) | 2 | 69.8 (active)
RPS9 (GeneID 6203) | 3 | 65.9 (active)
CHD6 (GeneID 84181) | 1 | 65 (active)
CHD6 (GeneID 84181) | 2 | 62.7 (active)
CHD6 (GeneID 84181) | 3 | 78.4 (active)
NME3 (GeneID 4832) | 1 | 74.6 (active)
NME3 (GeneID 4832) | 1 | 65.4 (active)
NME3 (GeneID 4832) | 2 | 50.4 (active)
NME3 (GeneID 4832) | 2 | 67.8 (active)
NME3 (GeneID 4832) | 3 | 72.4 (active)
NME3 (GeneID 4832) | 3 | 59.8 (active)
KDM3B (GeneID 51780) | 1 | 51.5 (active)
KDM3B (GeneID 51780) | 2 | 57 (active)
KDM3B (GeneID 51780) | 3 | 45.5 (active)
MARK3 (GeneID 4140) | 1 | 84.9
MARK3 (GeneID 4140) | 2 | 87.2
MARK3 (GeneID 4140) | 3 | 90.7
RAD1 (GeneID 5810) | 1 | 65.2 (active)
RAD1 (GeneID 5810) | 2 | 56.4 (active)
RAD1 (GeneID 5810) | 3 | 56.5 (active)
TMPO (GeneID 7112) | 1 | 109
TMPO (GeneID 7112) | 2 | 104
TMPO (GeneID 7112) | 3 | 66.2 (active)
ASXL3 (GeneID 80816) | 1 | 74.9 (active)
ASXL3 (GeneID 80816) | 2 | 72.3 (active)
ASXL3 (GeneID 80816) | 3 | 74.7 (active)
RIPK1 (GeneID 8737) | 1 | 64.2 (active)
RIPK1 (GeneID 8737) | 2 | 55.7 (active)
RIPK1 (GeneID 8737) | 3 | 78.3 (active)
PIP5K1B (GeneID 8395) | 1 | 78.5 (active)
PIP5K1B (GeneID 8395) | 2 | 49.7 (active)
PIP5K1B (GeneID 8395) | 3 | 63.3 (active)
EIF4A2 (GeneID 1974) | 1 | 53.2 (active)
EIF4A2 (GeneID 1974) | 2 | 45.9 (active)
EIF4A2 (GeneID 1974) | 3 | 56.2 (active)
MACROH2A2 (GeneID 55506) | 1 | 52.7 (active)
MACROH2A2 (GeneID 55506) | 2 | 44.3 (active)
MACROH2A2 (GeneID 55506) | 3 | 31.2 (active)
NKX2-3 (GeneID 159296) | 1 | 34.4 (active)
NKX2-3 (GeneID 159296) | 2 | 39.3 (active)
NKX2-3 (GeneID 159296) | 3 | 40.2 (active)
SETD1A (GeneID 9739) | 1 | 50.3 (active)
SETD1A (GeneID 9739) | 2 | 53.3 (active)
SETD1A (GeneID 9739) | 3 | 46.1 (active)
